Data on 10 compounds can be found in patent US10035790B2, “RORγ modulators” (BRISTOL-MYERS SQUIBB COMPANY, priority 2012, dated 2018).

By UniProt entry, the sequences of proteins in these tests, tags left out. Residues count along the entry.
UniProt P51449, 262-507 limits assumed: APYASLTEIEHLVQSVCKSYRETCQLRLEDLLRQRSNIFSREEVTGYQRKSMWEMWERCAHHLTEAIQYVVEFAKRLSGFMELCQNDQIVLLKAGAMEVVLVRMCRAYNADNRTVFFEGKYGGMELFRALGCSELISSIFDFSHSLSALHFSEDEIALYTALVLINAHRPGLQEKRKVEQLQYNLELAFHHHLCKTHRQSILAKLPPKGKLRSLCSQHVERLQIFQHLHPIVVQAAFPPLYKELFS

For orientation: IC50 means the concentration that gives 50% inhibition. Higher therefore signals a need for much substance.

The test has as its target ligand binding domain of human RORγ (A262-S507) (Homo sapiens, UniProt P51449). The experiment in a line: General RORγ SPA binding assay (competition with [3H]25-hydroxycholesterol). The following applies: inhibition of [3H]25-hydroxycholesterol binding.

Structures were worked out from names or drawings and are uncertain.

For the compound `Cc1nc(C)c(-c2nnc(-c3cccc(Cl)c3)o2)c(C2CCN(C(=O)Cc3c(F)cccc3F)CC2)n1`, the IC50 was 18.9 nM.

With `Cc1nc(C)c(-c2nnc(-c3ccccc3Cl)o2)c(C2CCN(C(=O)Cc3c(F)cccc3F)CC2)n1`, the IC50 came to 102 nM.

Turning to `Cc1nc(C)c(-c2nnc(-c3ccnc(C(C)C)n3)o2)c(C2CCN(C(=O)Cc3c(F)cccc3F)CC2)n1`, the IC50 is 201 nM.

The compound `Cc1nc(C)c(-c2nnc(Cc3cccc(C(F)(F)F)c3)o2)c(C2CCN(C(=O)Cc3c(F)cccc3F)CC2)n1` yielded a half-inhibitory concentration (IC50) of 218 nM.

With `Cc1cc(C)cc(-c2nnc(-c3c(C)nc(C)nc3C3CCN(C(=O)Cc4c(F)cccc4F)CC3)o2)c1`, the IC50 was determined as 26.3 nM.

On to `Cc1nc(C)c(-c2nnc(-c3ccnc(C(F)(F)F)c3)o2)c(C2CCN(C(=O)Cc3c(F)cccc3F)CC2)n1`, for which the IC50 turned out to be 110 nM.

As for `Cc1nc(C)c(-c2nnc(-c3cccc(C(F)(F)F)c3)o2)c(C2CCN(C(=O)Cc3c(F)cccc3F)CC2)n1`, the IC50 amounted to 19.4 nM.

Regarding `Cc1nc(C)c(-c2nnc(-c3ccccc3)o2)c(C2CCN(C(=O)Cc3c(F)cccc3F)CC2)n1`, the IC50 was found to be 161 nM.

Compound `Cc1nc(C)c(-c2nnc(-c3cccc(OC(F)(F)F)c3)o2)c(C2CCN(C(=O)Cc3c(F)cccc3F)CC2)n1` came in with an IC50 of 15.5 nM.

Consider `Cc1cc(-c2nnc(-c3c(C)nc(C)nc3C3CCN(C(=O)Cc4c(F)cccc4F)CC3)o2)nc(C(F)(F)F)n1`, for which the IC50 was found to be 6.9 nM. This IC50 lies about 2.2-fold lower than the previous one.
